The experiment concerns the target T1, Rubicon (endogenous, RCS chondrocytes) (rat (endogenous in RCS rat chondrosarcoma chondrocytes)).
T1 sequence: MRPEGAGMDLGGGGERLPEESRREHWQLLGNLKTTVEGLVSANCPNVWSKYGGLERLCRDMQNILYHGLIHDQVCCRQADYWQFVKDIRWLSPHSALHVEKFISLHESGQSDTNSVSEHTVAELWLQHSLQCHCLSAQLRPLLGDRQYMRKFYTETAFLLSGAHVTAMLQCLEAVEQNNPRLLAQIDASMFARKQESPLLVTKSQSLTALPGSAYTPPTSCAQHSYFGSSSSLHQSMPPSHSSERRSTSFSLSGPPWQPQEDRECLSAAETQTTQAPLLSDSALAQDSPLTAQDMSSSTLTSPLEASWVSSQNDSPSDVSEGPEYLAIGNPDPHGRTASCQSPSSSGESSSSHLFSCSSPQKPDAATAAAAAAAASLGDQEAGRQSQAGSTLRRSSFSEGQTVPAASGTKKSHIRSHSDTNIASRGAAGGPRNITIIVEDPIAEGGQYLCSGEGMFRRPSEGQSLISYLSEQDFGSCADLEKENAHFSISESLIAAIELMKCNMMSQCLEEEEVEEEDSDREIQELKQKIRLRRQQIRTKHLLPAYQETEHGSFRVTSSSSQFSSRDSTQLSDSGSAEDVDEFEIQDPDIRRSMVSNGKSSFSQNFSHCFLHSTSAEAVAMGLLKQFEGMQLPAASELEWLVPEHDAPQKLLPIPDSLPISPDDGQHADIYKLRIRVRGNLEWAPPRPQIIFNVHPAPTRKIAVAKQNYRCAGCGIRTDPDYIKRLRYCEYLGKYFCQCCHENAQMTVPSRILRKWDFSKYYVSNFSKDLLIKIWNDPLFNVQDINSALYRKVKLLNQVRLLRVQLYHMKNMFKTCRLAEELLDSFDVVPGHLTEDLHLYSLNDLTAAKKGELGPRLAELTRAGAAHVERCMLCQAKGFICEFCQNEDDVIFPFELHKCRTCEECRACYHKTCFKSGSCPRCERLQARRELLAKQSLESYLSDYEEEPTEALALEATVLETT
Kind of experiment: co-immunoprecipitation from RCS WT and GusbKO chondrocyte lysates with a UVRAG-specific antibody, western blot for Rubicon.

No constants are given. Whether binding was seen depends on the method and setting. In cells and extracts the contact can be indirect. Some binding calls cover weakened binding; strength is not graded here.

B1: UVRAG (UV radiation resistance-associated gene protein; endogenous, RCS chondrocytes) (protein)
chain: MSSCASLGGPVPLPPPGPSAALTPGAPTRALHVELPSQQRRLRHLRNIAARNIVNRNGHQLLDTYFTLHLCDNEKICKEFYRSEVIKNSLNPTWRSLDFGIMPDRLDTSVSCFVVKIWGGKEEAYQLLIEWKVYLDGLKYLGQQIHARNQNEIIFGLNDGYYGAPFEHKAHPNAQKNLLQVDQNCVRNSYDVFSLLRLHRAQCAIKQTQVTVQRIGKEIEEKLRLTSTSNELKKESECLRLKILVLRNELERQKKALGREVAFLHKQQMALQDKGSAFAAEHAKLQLQKESLRELRKECTAKRELFLKTNAQLTIRCRQLLSELSYIYPIDLNEHKDYFVCGVKLPNSEDFQAKDDGSIAVALGYTAHLVSMISFFLQVPLRYPIIHKGSRSTIKDNINDKLTEKEREFPLYPKGGEKLQFDYGVYLLNKNIAQLRYQHGLGTPDLRQTLPNLKNFMEHGLMVRCDRHHISSAIPVPKRQSSTFRGADVGLSTGVPSPDNVHRKRASSENERLQYKTPPPSYNSALTQHGVAMPTLGDSERKVTPLSSSLDTSLDFSKESKKTGVDLGNSVSGDHRNVDSSQEQGEALPGHLATINGTALPSEQPGPAGTLLPGLCHPAPSAELCCAVEQAEEIIGLEATGFTSGDQLEALSCIPVDSAVAVECDEQVLGEFEEFSRRIYALSENVSSFRRPRRSSDK
B1: the binding result is “binds”.

The values are drawn from patent US20200230207A1, “TREATMENT OF BONE GROWTH DISORDERS” (FONDAZIONE TELETHON, priority 2015, published 2020).
